The results in this text go back to paper PMC9964404, “Molecular Modeling and In Vitro Evaluation of Piplartine Analogs against Oral Squamous Cell Carcinoma” (Molecules, 2023).

One series deals with SCC9 cells. As to the kind of experiment: MTT cell viability (cytotoxicity) assay, SCC9. It is filed as cell-based, human. The note with it: for S.I.: IC50 in normal oral fibroblasts / IC50 in SCC9. Here is the method:
(§1) SCC cells (SCC9 and SCC4), derived from human tongue OSCC, were obtained by (ATCC® CRL-1629 and CRL-1624) and maintained in DMEM/F12 1:1 medium (Dulbecco’s modified Eagle’s medium and Ham’s F12 medium, Gibco (Thermo Fisher, Waltham, MA, USA), supplemented with 10% (v/v) FBS (Fetal Bovine Serum; Invitrogen, Thermo Fisher, Waltham, MA, USA) and 400 ng/mL hydrocortisone (Sigma-AldrichCo., St. Louis, MO, USA). Primary normal gingival fibroblast human (PCS201 018TM) and other tumor cells B16-F10 (CRL-6475), Hep G2 (HB-8065), and HT-29 (HTB-38) were also obtained at ATCC and maintained in DMEM supplemented with 10% (v/v) FCS. Cells were cultured in a humidified environment containing 5% CO2 at 37 °C. For all experiments, the compounds were solubilized in DMSO (Sigma-Aldrich) for a final concentration of 100 mM. From this dilution, other concentrations were made to carry out the cell viability assay. Carboplatin (Fauldcarbo®; Libbs Farmacêutica, São Paulo, SP, Brazil) was used as a control antitumor compound.
(§2) The viability of cancer cells and primary fibroblasts was tested using the MTT assay as described in MACHADO et al., 2021 [49]. Briefly, cancer cells (5 × 10^3 cells/well) were plated in duplicate in a 96-well plate, as indicated. DMSO was diluted in culture medium at the same concentrations and was used as a negative control, representing 100% cell viability. After 48 h of treatment, cells were incubated for 3.5 h with 5 mg/mL of MTT reagent (3,4,5-dimethiazol-2,5-diphenyltetrazoliumbromide) (Sigma-Aldrich Co., St. Louis, MO, USA) diluted in culture medium. Subsequently, the formazan crystals were dissolved by MTT solvent (50% Methanol and 50% DMSO), and the absorbance was read at 560 nm using the EPOCH microplate spectrophotometer (BioTekInstruments, Winooski, VT, USA).
IC50 values for the MTT assay were obtained by non-linear regression using GraphPad Prism 5.0 software (GraphPad, San Diego, CA, USA) from at least three independent experiments. Data are presented as means, ± standard deviation (SD). A log dose response (inhibitor) vs. response curve using the least square method was used to determine the IC50 and SD of the data. The selectivity index was calculated as: S.I. = IC50 of the compound in fibroblasts/IC50 of the same compound in tumor cells.

Series [1] relates to Oral Tumor Cells (SCC9, SCC4). The experiment in a line: MTT cell viability assay, average of OSCC lines SCC9 and SCC4. It is filed as cell-based, human. The note with it: fibroblast IC50 / average IC50 of SCC9 and SCC4. Here is the method: as §1, §2
(§3) IC50 values for the MTT assay were obtained by non-linear regression using GraphPad Prism 5.0 software (GraphPad, San Diego, CA, USA) from at least three independent experiments. […] The selectivity index was calculated as: S.I. = IC50 of the compound in fibroblasts/IC50 of the same compound in tumor cells.
A general note: Tetrazolium dyes change colour on reduction, which living cells bring about.

For the next series, the system named is HEP G2 (hepatocarcinoma). The experiment in a line: MTT cell viability assay, HEP G2. It is filed as cell-based. The note with it: fibroblasts vs HEP G2. Here is the method: as §1, with “For all experiments, the compounds were solubilized in DMSO (Sigma-Aldrich) for a final concentration of 100 mM. From this dilution, other concentrations were made to carry out the cell viability assay. Carboplatin (Fauldcarbo®; Libbs Farmacêutica, São Paulo, SP, Brazil) was used as a control antitumor compound.” left out
(§4) The viability of cancer cells and primary fibroblasts was tested using the MTT assay as described in MACHADO et al., 2021 [49]. […] Subsequently, the formazan crystals were dissolved by MTT solvent (50% Methanol and 50% DMSO), and the absorbance was read at 560 nm using the EPOCH microplate spectrophotometer (BioTekInstruments, Winooski, VT, USA).
as §3

The test system of series [2] is HT-29 (colon adenocarcinoma). The experiment in a line: MTT cell viability assay, HT-29. It is filed as cell-based. The settings on record: fibroblasts vs HT-29. Here is the method:
as §1, with “For all experiments, the compounds were solubilized in DMSO (Sigma-Aldrich) for a final concentration of 100 mM. From this dilution, other concentrations were made to carry out the cell viability assay. Carboplatin (Fauldcarbo®; Libbs Farmacêutica, São Paulo, SP, Brazil) was used as a control antitumor compound.” left out
as §4, §3

Molecules are shown by their SMILES. “And” between values parts separate entries of the source, which are not always exact repeats. Equal entries are not always repeated.

In the case of `N.N.O=C([O-])C1(C(=O)[O-])CCC1.[Pt+2]` [Carboplatin, reference compound], the S.I. in the series with SCC9 cells is recorded as 2.46. Also, the “Average S.I.” value in series [1] stood at 2.67.
In the series on SCC9 cells, `CCCOC(=O)c1cc(OC)c(OC)c(OC)c1` [Compound 3, Propyl 3,4,5–trimethoxybenzoate] returned a S.I. of 4.20.
In turn, `COc1cc(C(=O)OC(C)C)cc(OC)c1OC` [Compound 4, Isopropyl 3,4,5–trimethoxybenzoate] returned a S.I. in the series on SCC9 cells of 4.81. In series [1], the “Average S.I.” value is recorded as 4.79.
Take `CCCCOC(=O)c1cc(OC)c(OC)c(OC)c1` [Compound 5, Butyl 3,4,5–trimethoxybenzoate]: the S.I. in the series with SCC9 cells was determined as 2.50. Moreover, the “times more potent than N-butyl-3,4,5-trimethoxybenzoamide (13)” value in the series on SCC9 cells (SCC9 IC50 ratio) is listed as 2.3.
Regarding `COc1cc(C(=O)OCCC(C)C)cc(OC)c1OC` [Compound 6, Isopentyl 3,4,5–trimethoxybenzoate], the S.I. in the series with SCC9 cells is 3.56.
For `CCCCCOC(=O)c1cc(OC)c(OC)c(OC)c1` [Compound 7, Pentyl 3,4,5–trimethoxybenzoate], the S.I. in the series with SCC9 cells is < 2 and 1.62.
With `COc1ccc(COC(=O)c2cc(OC)c(OC)c(OC)c2)cc1` [Compound 9, 4-Methoxy-benzyl 3,4,5–trimethoxybenzoate], the S.I. in the series with HEP G2 (hepatocarcinoma) was > 100 and 111.7; with SCC9 cells it was > 16 and 16.02; in series [2] it was > 100 and 101.3. In addition, in the series on SCC9 cells (SCC9 IC50 ratio), the “times more potent than Carboplatin” value turned out to be 4.5. Further, the “Average S.I.” value in series [1] is on record as 15.42.
In the case of `CCCCNC(=O)c1cc(OC)c(OC)c(OC)c1` [Compound 13, N-Butyl-3,4,5–trimethoxybenzamide], the S.I. in the series on SCC9 cells amounted to 5.03.
